# Screen size: about 59,000 compounds; about 6,500 (11%) were called active. The inconclusive results got no clear call from the source; some entries with a clear call stand among them for comparison. No stated cut-off is given here; in the data, active means max dye-equivalent concentration above about 10 nM; inconclusive means mostly about 1.1 nM to 9.6 nM; inactive means weaker than that.
# Assay: qHTS Assay for Spectroscopic Profiling in A350 Spectral Region
# Settings: Compound autofluorescence, 340/450 nm, Alexa 350 dye-equivalents; stronger effect = higher value
row,SMILES,max dye-equivalent concentration
1,COc1ccc2c(CC(=O)Nc3ccc(OC)c(NS(=O)(=O)c4ccc(F)cc4)c3)coc2c1,inactive
2,CC1(c2cccs2)CC(c2cccs2)=C(C#N)C(=O)N1 (stereo unspecified),active: 60 nM
3,Nc1c(C(=O)Nc2ccccc2)sc2nc(-c3ccco3)ccc12,inconclusive: 5.7 nM
4,CN(C)c1ncc2nc(-c3ccc(F)cc3)c(=O)n(C[C@H]3CCCO3)c2n1,active: 41 nM
5,Cc1cnc(CNc2ncncc2-c2ccccc2C)cn1,inactive
6,O=C(Nc1ccc(N2CCOCC2)cc1)C1CCN(S(=O)(=O)Cc2ccccc2)CC1,inconclusive: 1.4 nM
7,FC(F)(F)c1ccccc1-c1nc(NCc2cccnc2)c2ccccc2n1,inactive
8,CCN(CC)C(=O)CSc1nnc(CCCCCNC(=O)OC(C)(C)C)o1,inconclusive: 1.1 nM
9,Cc1cc(=O)oc2cc(OCC(=O)N3CCCC(C)C3)ccc12 (stereo unspecified),inconclusive: 6.9 nM
10,Cc1sc2nc(-c3cccs3)nc(N3CCCN(C)CC3)c2c1C,active: 33 nM
11,O=C(NCc1ccccc1)c1cc(=O)nc2sc(-c3ccccc3)nn12,active: 140 nM
12,Cc1ccc(-c2cc3nc(C)cc(NCc4ccco4)n3n2)cc1,active: 12 nM
13,Brc1cccc(/C=N\n2cnnc2)c1,inconclusive: 1.6 nM
14,COc1cc(C2=NOC(C(=O)N3CCCCCC3)C2)cc(OC)c1OC (stereo unspecified),inconclusive: 1.6 nM
15,O=S(=O)(c1ccccc1)N1CCC2(CCN(c3ncccn3)CC2)CC1,inactive
16,COc1ccccc1Nc1nc2c(s1)CCC2,inconclusive: 3.6 nM
17,O=C1c2oc3ccccc3c(=O)c2C(c2cccs2)N1CCCN1CCOCC1 (stereo unspecified),inconclusive: 9 nM
18,O=C(COC(=O)c1cccnc1)Nc1cccc(Cl)c1,inconclusive: 8.2 nM
19,CSc1c(CC(=O)NCCO)n(C)c2ccccc12,inactive
20,CCC(c1nnnn1CCOC)N1CCN(C(=O)c2ccco2)CC1 (stereo unspecified),inactive
21,CN(C)c1ccc(P(=O)(OCc2ccccc2)C(O)c2ccncc2)cc1 (stereo unspecified),inconclusive: 1.5 nM
22,CSc1nc2sc3c(c2c2nnnn12)CCC3,inconclusive: 3.9 nM
23,CCC1CCCCN1CC(=O)c1c(C)[nH]c2ccccc12 (stereo unspecified),inconclusive: 7.6 nM

row,SMILES,max dye-equivalent concentration
1,COc1ccc(C=NCCCN2CCOCC2)cc1,active: 4600 nM
2,COCCCNC(CC(=O)Nc1ccc(OC)cc1OC)C(=O)O (stereo unspecified),active: 29 nM
3,COCc1nnc(SCC(=O)NC(C)c2ccccc2)n1-c1ccccc1 (stereo unspecified),inconclusive: 5.2 nM
4,Cn1c(C(C#N)C(=O)c2ccco2)nc2ccccc21 (stereo unspecified),active: 11 nM
5,CCOc1ccc(N2C(=O)CC(N(O)c3ccccc3)C2=O)cc1 (stereo unspecified),inconclusive: 1.1 nM
6,COc1ccccc1NC(=O)c1cc2ccccc2o/c1=N\O,inconclusive: 4.2 nM
7,O=C(Nc1cccc(Cl)c1)N(Cc1nc2ccccc2c(=O)[nH]1)C1CCCC1,inactive
8,Nc1nc(Nc2ccccc2)nc2c1ncn2[C@@H]1O[C@@H](CO)[C@H](O)[C@@H]1O,inactive
9,CCOC(=O)c1oc2ccccc2c1NC(=O)c1ccc(S(=O)(=O)N2CCCC2)cc1,active: 48 nM
10,CCCCN(C)CCn1c(=S)[nH]c2ccc(N3CCOCC3)cc2c1=O,active: 18 nM
11,C=Cc1c(C)c2cc3nc(cc4[nH]c(cc5nc(cc1[nH]2)C(C)=C5CCC(=O)O)c(CCC(=O)OC)c4C)[C@@]1(C)C3=CC=C(C(=O)OC)[C@H]1C(=O)OC (tested in a mixture with another compound),inconclusive: 3.7 nM
12,O=C(Nc1ccc2c(c1)OCO2)Nc1ccc(Br)cn1,inactive
13,O=C(NCc1ccco1)c1cccc2c1C(=O)N(C1CCCCC1)C2,inactive
14,COc1ncc2nc(-c3ccc(F)cc3)c(=O)n(C[C@H]3CCCO3)c2n1,active: 38 nM
15,Cc1cc(NC(=O)COc2ccc(Cl)cc2Cl)n(CCC#N)n1,inconclusive: 1.2 nM
16,O=C1CCCC2=C1C(c1cccs1)n1nc(SCc3ccccc3F)nc1N2 (stereo unspecified),active: 55 nM
17,CC(=O)Nc1cccc(Oc2ccc(-c3noc(C)n3)cc2)c1,inactive
18,CCCc1nc(SCC(=O)N2CCCC2)c2ccccc2n1,inconclusive: 1.8 nM
19,CCOc1cc(C2C3=C(CCCC3=O)NC3=C2C(=O)CCC3)ccc1OCCO,active: 25 nM
20,CCCc1nnc2n1N=C(c1ccc(OC)c(OC)c1)CS2,inconclusive: 1.6 nM
21,N#Cc1nc(Cc2ccccc2)oc1NCCCn1ccnc1,inactive
22,C=CCn1c(SCc2ccc3nonc3c2)nnc1-c1cccs1,inconclusive: 2.6 nM
23,COc1ccccc1N1CCN(C(=O)C2CCC(Cn3c(=S)[nH]c4ccccc4c3=O)CC2)CC1 (stereo unspecified),inconclusive: 3.1 nM

# Molecules listed so far that contain a COOH group (two):
row,SMILES,max dye-equivalent concentration
2,COCCCNC(CC(=O)Nc1ccc(OC)cc1OC)C(=O)O (stereo unspecified),active: 29 nM
11,C=Cc1c(C)c2cc3nc(cc4[nH]c(cc5nc(cc1[nH]2)C(C)=C5CCC(=O)O)c(CCC(=O)OC)c4C)[C@@]1(C)C3=CC=C(C(=O)OC)[C@H]1C(=O)OC (tested in a mixture with another compound),inconclusive: 3.7 nM
